The list does not hold the whole screen: it gathers tests that were run many times, whatever their T/C, doses with no T/C, and many T/C values between a quarter and a half above the control. Other doses and runs of a compound stand elsewhere. T/C: endpoint of the treated group in % of that of the vehicle group. Schedules are NCI's codes, read here as Q, the interval in days (D) or hours (H), X, the number of doses. Some T/C values carry the count of animals alive at the toxicity check (mostly the fifth day); where none is given, no animal had died by that day. Some entries hold several experiments; the values are given in rising order. Some values lie below zero, which means that the treated tumours became smaller. Some doses have a count of surviving animals in place of a T/C: the source holds a T/C of zero for them, seemingly a mark for toxic or unscored doses. Counts of survivors are from the toxicity check (mostly the fifth day) where no day follows; animals may have died later.
Test system: CD8F1 mice, subcutaneous mammary adenocarcinoma, T/C%
Experiment: NCI In Vivo Anticancer Drug Screen. Data for tumor model Mammary Adenocarcinoma CD8F1 (subcutaneous) in CD8F1
Conditions: higher T/C = larger tumour
Outline: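 Mice carrying transplanted tumors received test compound, and survival or tumor size was recorded. Each value is the treated-group measurement divided by the corresponding measurement in vehicle-dosed controls.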

[1] = T/C endpoint: median tumor weight change, dose: 2000.0 mg/kg/injection, schedule: Q01DX001 (ip), vehicle: saline with Tween-80

CC(=O)OCC(=O)[C@@]12OC(C)(C)O[C@@H]1C[C@H]1[C@@H]3CC(C=O)=C4C=C(OCCCl)CC[C@]4(C)[C@@]3(F)[C@@H](O)C[C@@]12C
T/C (T/C endpoint: median tumor weight change, dose: 125.0 mg/kg/injection, schedule: Q01DX001 (ip), vehicle: Klucel (hydroxypropylcellulose) (HPC), evaluated on day 28): 56 % of control | T/C (T/C endpoint: median tumor weight change, dose: 125.0 mg/kg/injection, schedule: Q01DX001 (ip), vehicle: Klucel (hydroxypropylcellulose) (HPC), evaluated on day 30): 32 % of control | T/C (T/C endpoint: median tumor weight change, dose: 125.0 mg/kg/injection, schedule: Q01DX001 (ip), vehicle: Klucel (hydroxypropylcellulose) (HPC), evaluated on day 31): 13 % of control [9 of 10 alive on day 31] | T/C (T/C endpoint: median tumor weight change, dose: 125.0 mg/kg/injection, schedule: Q01DX001 (ip), vehicle: Klucel (hydroxypropylcellulose) (HPC), evaluated on day 36): 52 % of control | T/C (T/C endpoint: median tumor weight change, dose: 250.0 mg/kg/injection, schedule: Q01DX001 (ip), vehicle: Klucel (hydroxypropylcellulose) (HPC), evaluated on day 28): 10 % of control | T/C (T/C endpoint: median tumor weight change, dose: 250.0 mg/kg/injection, schedule: Q01DX001 (ip), vehicle: Klucel (hydroxypropylcellulose) (HPC), evaluated on day 30): 16 % of control | T/C (T/C endpoint: median tumor weight change, dose: 250.0 mg/kg/injection, schedule: Q01DX001 (ip), vehicle: Klucel (hydroxypropylcellulose) (HPC), evaluated on day 31): 6 % of control | T/C (T/C endpoint: median tumor weight change, dose: 250.0 mg/kg/injection, schedule: Q01DX001 (ip), vehicle: Klucel (hydroxypropylcellulose) (HPC), evaluated on day 36): 47 % of control | T/C (T/C endpoint: median tumor weight change, dose: 500.0 mg/kg/injection, schedule: Q01DX001 (ip), vehicle: Klucel (hydroxypropylcellulose) (HPC), evaluated on day 28): -8 % of control | T/C (T/C endpoint: median tumor weight change, dose: 500.0 mg/kg/injection, schedule: Q01DX001 (ip), vehicle: Klucel (hydroxypropylcellulose) (HPC), evaluated on day 30): 2 % of control | T/C (T/C endpoint: median tumor weight change, dose: 500.0 mg/kg/injection, schedule: Q01DX001 (ip), vehicle: Klucel (hydroxypropylcellulose) (HPC), evaluated on day 31): -27 % of control [9 of 10 alive on day 31] | T/C (T/C endpoint: median tumor weight change, dose: 500.0 mg/kg/injection, schedule: Q01DX001 (ip), vehicle: Klucel (hydroxypropylcellulose) (HPC), evaluated on day 36): 25 % of control | T/C (T/C endpoint: median tumor weight change, dose: 1000.0 mg/kg/injection, schedule: Q01DX001 (ip), vehicle: Klucel (hydroxypropylcellulose) (HPC), evaluated on day 28): -8 % of control | T/C (T/C endpoint: median tumor weight change, dose: 1000.0 mg/kg/injection, schedule: Q01DX001 (ip), vehicle: Klucel (hydroxypropylcellulose) (HPC), evaluated on day 30): -30 % of control | T/C (T/C endpoint: median tumor weight change, dose: 1000.0 mg/kg/injection, schedule: Q01DX001 (ip), vehicle: Klucel (hydroxypropylcellulose) (HPC), evaluated on day 31): -10 % of control [8 of 10 alive on day 31] | T/C (T/C endpoint: median tumor weight change, dose: 1000.0 mg/kg/injection, schedule: Q01DX001 (ip), vehicle: Klucel (hydroxypropylcellulose) (HPC), evaluated on day 36): 15 % of control

O=c1[nH]cnc2c1ccn2C1OC(CO)C(O)C1O (stereo not drawn)
T/C (T/C endpoint: median tumor weight change, dose: 6.0 mg/kg/injection, schedule: Q01DX001 (ip), vehicle: saline, evaluated on day 35): 137 % of control | T/C (T/C endpoint: median tumor weight change, dose: 12.0 mg/kg/injection, schedule: Q01DX001 (ip), vehicle: saline, evaluated on day 35): 127 % of control | survivor count (T/C endpoint: median tumor weight change, dose: 96.0 mg/kg/injection, schedule: Q01DX001 (ip), vehicle: saline): 0 of 10 on day 35

Nc1ncnc2c1ncn2C1C=C(CO)C(O)C1O (stereo not drawn)
survivor count (T/C endpoint: median tumor weight change, dose: 20.0 mg/kg/injection, schedule: Q01DX001 (ip), vehicle: suspension in saline): 4 of 10 on day 27 | survivor count (T/C endpoint: median tumor weight change, dose: 40.0 mg/kg/injection, schedule: Q01DX001 (ip), vehicle: suspension in saline): 0 of 10 on day 27 and 6 of 10 on day 33 | survivor count (T/C endpoint: median tumor weight change, dose: 80.0 mg/kg/injection, schedule: Q01DX001 (ip), vehicle: saline): 2 of 10 on day 28 | survivor count (T/C endpoint: median tumor weight change, dose: 80.0 mg/kg/injection, schedule: Q01DX001 (ip), vehicle: suspension in saline): 0 of 10 on day 27 and 1 of 9 on day 33

CC(=O)Oc1c[nH]c(=O)[nH]c1=O
survivor count [1]: 4 of 10 on day 36

COc1ccc([I+]c2cccc(Cl)c2)cc1Cl
T/C (T/C endpoint: median tumor weight (est.), dose: 12.5 mg/kg/injection, schedule: Q07DX005 (ip), vehicle: saline with Tween-80, evaluated on day 30): 133 % of control | survivor count (T/C endpoint: median tumor weight (est.), dose: 100.0 mg/kg/injection, schedule: Q07DX005 (ip), vehicle: saline with Tween-80): 2 of 10 | survivor count (T/C endpoint: median tumor weight (est.), dose: 200.0 mg/kg/injection, schedule: Q07DX005 (ip), vehicle: saline with Tween-80): 1 of 10

CC1c2ccccc2CC(CCN(C)C)c2ccccc21 (stereo not drawn)
survivor count (T/C endpoint: median tumor weight change, dose: 62.5 mg/kg/injection, schedule: Q01DX001 (ip), vehicle: saline with Tween-80): 3 of 10 on day 27 | survivor count (T/C endpoint: median tumor weight change, dose: 125.0 mg/kg/injection, schedule: Q01DX001 (ip), vehicle: saline with Tween-80): 0 of 10 on day 27 | survivor count (T/C endpoint: median tumor weight change, dose: 250.0 mg/kg/injection, schedule: Q01DX001 (ip), vehicle: saline with Tween-80): 0 of 10 on day 27 | survivor count (T/C endpoint: median tumor weight change, dose: 500.0 mg/kg/injection, schedule: Q01DX001 (ip), vehicle: saline with Tween-80): 0 of 10 on day 27

CN(N=O)C(N)=O
T/C (T/C endpoint: median tumor weight (est.), dose: 6.25 mg/kg/injection, schedule: Q07DX005 (ip), vehicle: suspension in saline, evaluated on day 30): 136 % of control | survivor count (T/C endpoint: median tumor weight (est.), dose: 100.0 mg/kg/injection, schedule: Q07DX005 (ip), vehicle: saline): 0 of 10 on day 30 | survivor count (T/C endpoint: median tumor weight (est.), dose: 100.0 mg/kg/injection, schedule: Q07DX005 (ip), vehicle: suspension in saline): 0 of 10 on day 30 | survivor count (T/C endpoint: median tumor weight change, dose: 250.0 mg/kg/injection, schedule: Q01DX001 (ip), vehicle: Klucel (hydroxypropylcellulose) (HPC)): 0 of 10 on day 35 | survivor count (T/C endpoint: median tumor weight change, dose: 250.0 mg/kg/injection, schedule: Q01DX001 (ip), vehicle: saline): 0 of 10 on day 30 | survivor count (T/C endpoint: median tumor weight change, dose: 250.0 mg/kg/injection, schedule: Q01DX001 (ip), vehicle: suspension in saline): 5 of 10 on day 28

COC1C(O)CC(OC2C(C)OC(Oc3cc(O)c4c(O)c5c(cc4c3)C[C@@H]([C@H](OC)C(=O)[C@@H](O)[C@@H](C)O)[C@H](OC3CC(OC4CC(OC6CC(C)(O)C(O)C(C)O6)C(O)C(C)O4)C(O)C(C)O3)C5=O)CC2OC(C)=O)OC1C (stereo partly drawn)
T/C (T/C endpoint: median tumor weight (est.), dose: 37.5 mg/kg/injection, schedule: Q07DX005 (ip), vehicle: suspension in saline, evaluated on day 32): 149 % of control

C=C1C(=O)C2=CC1CCC(=O)C1(C)CCC(OC(C)=O)C(C)(C)C1CC2O (stereo not drawn)
survivor count (T/C endpoint: median tumor weight change, dose: 300.0 mg/kg/injection, schedule: Q01DX001 (ip), vehicle: Klucel (hydroxypropylcellulose) (HPC)): 0 of 10 on day 36 | survivor count (T/C endpoint: median tumor weight change, dose: 600.0 mg/kg/injection, schedule: Q01DX001 (ip), vehicle: Klucel (hydroxypropylcellulose) (HPC)): 0 of 10 on day 36

Cc1c(N)nc(C(CC(N)=O)NCC(N)C(N)=O)nc1C(=O)NC(C(=O)NC(C)C(O)CC(=O)NC(C(=O)NC(OC1OC(C)C(N)C(O)C1O)C(O)c1nc(-c2nc(C(=O)NCCCC(N)CC(=O)NCCCNCCCCN)cs2)cs1)C(C)O)C(OC1OC(CO)C(O)C(O)C1OC1OC(CO)C(O)C(OC(N)=O)C1O)c1cnc[nH]1 (stereo not drawn)
survivor count (T/C endpoint: median tumor weight (est.), dose: 16.0 mg/kg/injection, schedule: Q07DX005 (ip), vehicle: saline): 4 of 10 on day 30 | survivor count (T/C endpoint: median tumor weight (est.), dose: 32.0 mg/kg/injection, schedule: Q07DX005 (ip), vehicle: saline): 0 of 10 on day 30 | survivor count (T/C endpoint: median tumor weight (est.), dose: 64.0 mg/kg/injection, schedule: Q07DX005 (ip), vehicle: saline): 0 of 10 on day 30

N[C@H](C(=O)O)[C@@H]1CC(Cl)=NO1
T/C (T/C endpoint: median tumor weight (est.), dose: 8.0 mg/kg/injection, schedule: Q07DX005 (ip), vehicle: saline, evaluated on day 30): 60 [9 of 10 alive], 69 [6 of 9 alive], 76, 175 % of control | T/C (T/C endpoint: median tumor weight (est.), dose: 16.0 mg/kg/injection, schedule: Q07DX005 (ip), vehicle: saline, evaluated on day 30): 51, 51 [9 of 10 alive], 61 [9 of 10 alive], 89 % of control | T/C (T/C endpoint: median tumor weight (est.), dose: 32.0 mg/kg/injection, schedule: Q07DX005 (ip), vehicle: saline, evaluated on day 30): 6, 38 [9 of 10 alive], 40, 99 % of control

COc1ccc2c(c1)CCC(c1ccccc1)=C2c1ccc(OCCN2CCCC2)cc1
survivor count (T/C endpoint: median tumor weight (est.), dose: 200.0 mg/kg/injection, schedule: Q07DX005 (ip), vehicle: Klucel (hydroxypropylcellulose) (HPC)): 2 of 10 on day 30

O=C(C/C(=N\C(=S)Nc1cc(C(F)(F)F)ccc1Cl)NO)N1CCCC1
T/C (T/C endpoint: median tumor weight change, dose: 62.0 mg/kg/injection, schedule: Q01DX001 (ip), vehicle: saline with Tween-80, evaluated on day 26): 129 % of control

CC1=CC(=NN=c2cc(C)n([O-])c(C)c2)C=C(C)[N+]1=O
T/C (T/C endpoint: median tumor weight change, dose: 250.0 mg/kg/injection, schedule: Q01DX001 (ip), vehicle: saline with Tween-80, evaluated on day 27): 132 % of control | survivor count (T/C endpoint: median tumor weight change, dose: 1000.0 mg/kg/injection, schedule: Q01DX001 (ip), vehicle: saline with Tween-80): 1 of 10 on day 27 | survivor count (T/C endpoint: median tumor weight change, dose: 1600.0 mg/kg/injection, schedule: Q01DX001 (ip), vehicle: suspension in saline): 1 of 10 on day 42 | survivor count [1]: 1 of 10 on day 27 | survivor count (T/C endpoint: median tumor weight change, dose: 2000.0 mg/kg/injection, schedule: Q01DX001 (ip), vehicle: saline): 0 of 10 on day 25

— PubChem BioAssay AID220 (DTP/NCI, 2004)
